Measured values reported in PubChem BioAssay AID504327 (National Center for Advancing Translational Sciences (NCATS), 2011).
Among all 390,000 compounds or so, about 820 (0.21%) were called active. The inconclusive results got no clear call from the source; some entries with a clear call stand among them for comparison. Calls come from the whole dose curve; as a rule, active = well fitted inhibition curve with a large enough effect; inconclusive = small, poorly fitted or top-dose-only effect, or another doubt; inactive = no such curve, though single readings can be large or run the other way. Potencies of inconclusive entries are doubtful fits and often do not repeat.
% is set by controls: 0 for no effect and ±100 for the full control effect; potency is the fitted concentration of half-maximal effect.

By UniProt entry, the sequences of proteins in these tests, tags left out.
UniProt Q92830, whole entry, looked up: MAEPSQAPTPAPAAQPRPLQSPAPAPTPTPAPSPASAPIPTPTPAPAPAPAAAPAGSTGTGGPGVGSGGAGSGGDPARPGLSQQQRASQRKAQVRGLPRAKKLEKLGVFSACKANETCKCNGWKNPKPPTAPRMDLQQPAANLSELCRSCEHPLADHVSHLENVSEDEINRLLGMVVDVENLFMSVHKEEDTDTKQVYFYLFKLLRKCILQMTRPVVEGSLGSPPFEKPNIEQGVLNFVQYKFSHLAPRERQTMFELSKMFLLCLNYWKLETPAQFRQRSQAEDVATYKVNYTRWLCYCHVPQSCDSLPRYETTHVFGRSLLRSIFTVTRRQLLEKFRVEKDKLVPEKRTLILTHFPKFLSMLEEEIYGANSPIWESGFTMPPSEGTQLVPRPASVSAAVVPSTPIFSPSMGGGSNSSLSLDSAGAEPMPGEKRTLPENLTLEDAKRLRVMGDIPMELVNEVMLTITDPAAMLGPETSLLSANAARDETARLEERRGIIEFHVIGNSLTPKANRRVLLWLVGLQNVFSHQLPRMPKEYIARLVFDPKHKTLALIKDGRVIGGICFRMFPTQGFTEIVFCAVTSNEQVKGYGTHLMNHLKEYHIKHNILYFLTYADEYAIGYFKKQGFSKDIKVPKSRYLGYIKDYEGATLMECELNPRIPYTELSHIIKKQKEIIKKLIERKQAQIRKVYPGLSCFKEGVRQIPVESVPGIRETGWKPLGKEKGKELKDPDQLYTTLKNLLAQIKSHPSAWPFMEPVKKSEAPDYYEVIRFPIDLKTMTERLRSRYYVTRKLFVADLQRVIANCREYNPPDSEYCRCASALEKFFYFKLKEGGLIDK

Each compound was assayed against Histone acetyltransferase KAT2A (Homo sapiens) (UniProt Q92830) (assay: qHTS Assay for Inhibitors of GCN5L2). Details: GCN5L2 HAT assay, ThioGlo1 CoA-SH fluorescence; activity change, negative = inhibition: at 58.9 µM (top of the series) unless noted.
Summary of the method: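 Preincubate 20nM GCN5L2 with compound 15 min, RT → add 50uM ThioGlo1 + 75uM H3(1-25) + 70uM acetyl-CoA → read fluorescence 0 and 20 min. Primary qHTS; fluorescent artifacts likely.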
With `Cc1ccc(-n2c(C)cc3c2CCCC3=O)cc1` the “activity change, negative = inhibition” value was inactive: -2.89%.
In the case of `CCOC(=O)c1c(NC(=O)CSc2cn(CCNC(=O)c3ccccc3OC)c3ccccc23)sc2c1CCC2`, the “activity change, negative = inhibition” value was inactive: -12.2%.
With `CCCCCCCC(=O)NC(Nc1ccc(S(N)(=O)=O)cc1)C(Cl)(Cl)Cl` (stereo unspecified) the Potency was inconclusive: 0.794 µM [inhibitor, single point].
With `CCN(CC)CCN(C(=O)c1ccc2c(c1)OCCO2)c1nc2c(Cl)cccc2s1` the “activity change, negative = inhibition” value was inactive: -2.27%.
With `CCc1cc2c(=O)c(-c3nc4ccccc4n3C)coc2c(CN2CCCCC2C)c1O` (stereo unspecified) the Potency was inconclusive: 28.2 µM [inhibitor, single point].
In the case of `Cc1cc(Nc2ccc(Cl)cc2C)nc(-n2nc(C)cc2C)n1`, the “activity change, negative = inhibition” value was inactive: 0.332%.
In the case of `O=c1c(O)cc(C2Oc3cc(O)cc(O)c3CC2O)cc2c(C3Oc4cc(O)cc(O)c4CC3O)cc(O)c(O)c12` (stereo unspecified), the Potency was active: 12.6 µM.
In the case of `CCCCCc1c2c(cc(O)c1C(=O)O)OC(=O)c1cc(C(=O)CCCC)c(OC)cc1O2`, the Potency was inconclusive: 39.8 µM [inhibitor, single point].
`CC(=O)OC1OCCOC1NC(=S)Nc1cccc(C(F)(F)F)c1` (stereo unspecified) was tested, and the “activity change, negative = inhibition” value was inactive: -1.9%.
In the case of `O=C(Nc1sccc1C(=O)N1CCOCC1)c1cccnc1`, the Potency was inconclusive: 5.62 µM [inhibitor, full curve, poor fit].
For `Cc1nnc(SCC(=O)N(CC(C)C)C2CCS(=O)(=O)C2)n1N` (stereo unspecified), the “activity change, negative = inhibition” value was inactive: 2.39%.
`COC(=O)c1ccc(NC(=O)CSc2cn(CC(=O)N3CCCCCC3)c3ccccc23)cc1` was tested, and the “activity change, negative = inhibition” value was inactive: -11.9%.
`CCNC(=O)CN(c1ccccc1OC)S(=O)(=O)c1cccs1` was tested, and the “activity change, negative = inhibition” value was inactive: 0.489%.
In the case of `CCC(C)OC(=O)c1[nH]c2c(c1C)C(=O)CC(c1ccc(N(C)C)cc1)C2` (stereo unspecified), the Potency was inconclusive: 20 µM [inhibitor, partial curve].
`C[C@H](Cc1ccc(O)c(O)c1)[C@@H](C)Cc1ccc(O)c(O)c1` was tested, and the Potency was inconclusive: 28.2 µM [inhibitor, single point].
With `CC1(C)C(C(=O)OCC(Cl)(Cl)Cl)N2C(=O)C(NC(=O)Cc3ccccc3)C2S1=O` (stereo unspecified) the “activity change, negative = inhibition” value was inactive: -1.16%.
`Cc1ccc(-n2nc3ccc(N)cc3n2)cc1C` was tested, and the Potency was inconclusive: 39.8 µM [inhibitor, single point].
In the case of `COc1ccccc1N(CC(=O)Nc1ccc(C)c(Cl)c1)S(=O)(=O)c1ccc(C)cc1`, the “activity change, negative = inhibition” value was inactive: -4.38%.
With `Cc1cc2c(cc1S(=O)(=O)Nc1cccc(F)c1)n(C)c(=O)c(=O)n2C` the Potency was inconclusive: 7.08 µM [inhibitor, single point].
In the case of `Cc1ccc(OCC(=O)NNC(=O)c2cc3ccccc3o2)cc1`, the Potency was inconclusive: 7.08 µM [inhibitor, single point].
In the case of `Cn1nc(-c2ccccc2F)c2cc(C(=O)N3CCN(c4ccc(F)cc4)CC3)sc21`, the “activity change, negative = inhibition” value was inactive: -13.2%.
For `Cc1cccc(N2CCN(S(=O)(=O)c3ccc(F)c(C(=O)Nc4ccc(C(C)C)cc4)c3)CC2)c1C`, the “activity change, negative = inhibition” value was inactive: -6.19%.
In the case of `Cc1sc2c(c1C)C(=O)NC(c1cccc(O)c1)N2` (stereo unspecified), the “activity change, negative = inhibition” value was inactive: 3.67%.
`COc1cccc(-c2nnc(SCC(=O)Nc3ccc4c(c3)OCCO4)n2Cc2ccco2)c1` was tested, and the “activity change, negative = inhibition” value was inactive: -21.5%.
`O=C1C(Cc2ccc(F)cc2)SC(=Nc2ccccc2)N1c1ccccc1` (stereo unspecified) was tested, and the “activity change, negative = inhibition” value was inactive: -2.22%.
`Cc1ccc2[nH]c(CSc3nnc(NC(=O)c4ccccc4C)s3)cc(=O)c2c1` was tested, and the Potency was inconclusive: 39.8 µM [inhibitor, single point].
For `COc1cc(/C=C(\C#N)C(=O)Nc2ccc(C(=O)O)cc2)ccc1OC(=O)c1cccc(F)c1`, the Potency was inconclusive: 7.08 µM [inhibitor, single point].
`CCOC(=O)c1c2ccc(OCC(=O)N/N=C/c3ccccc3C(F)(F)F)cc2n2ccccc12` was tested, and the Potency was inconclusive: 39.8 µM [inhibitor, single point].
With `O=C(Nc1nc(-c2cc3ccccc3o2)cs1)c1ccc(S(=O)(=O)N2CCCC2)cc1` the “activity change, negative = inhibition” value was inactive: -2.95%.
In the case of `CC1SC(c2ccccc2Cl)NC1=O` (stereo unspecified), the Potency was inconclusive: 39.8 µM [inhibitor, single point].
`CCCCC(=O)N1CCN(c2nc(-c3ccc(F)cc3)cs2)CC1` was tested, and the Potency was inconclusive: 31.6 µM [inhibitor, single point].
With `CCc1nnc(SCC(=O)N2CCCc3ccccc32)nc1CC` the “activity change, negative = inhibition” value was inactive: 1.83%.
For `CCCn1c(/C=C/c2ccco2)nc2ccccc21`, the “activity change, negative = inhibition” value was inactive: 17.1%.
For `COc1ccccc1OCCCCCc1c(C)n[nH]c1C`, the Potency was inconclusive: 39.8 µM [inhibitor, single point].
`COc1ccc(OC)c(Cc2nnc(CCC(=O)N3CCN(C4CCCC4)CC3)o2)c1` was tested, and the Potency was inconclusive: 39.8 µM [inhibitor, single point].
With `O=C(Cn1nc(C(F)(F)F)c2c1CCCC2)Nc1ccc2c(c1)OCO2` the Potency was inconclusive: 0.316 µM [inhibitor, full curve, poor fit].
For `O=C(O)CCn1cc(/C=C/C(=O)c2ccc(Cl)cc2)c(-c2ccc(Br)cc2)n1`, the Potency was inconclusive: 39.8 µM [inhibitor, single point].
`Nc1nnc(SCCN2C(=O)c3ccccc3C2=O)s1` was tested, and the Potency was inconclusive: 14.1 µM [inhibitor, single point].
With `CC(C)Cc1ccc(CN2CCCC(NC(=O)CCN3CCOCC3)C2)cc1` (stereo unspecified) the “activity change, negative = inhibition” value was inactive: 0.0605%.
`CC(C)N(CCCNC(=O)CC1Oc2ccccc2NC1=O)Cc1ccccc1` (stereo unspecified) was tested, and the “activity change, negative = inhibition” value was inactive: -0.995%.
With `Cc1cnc(CN(C)Cc2c(C(=O)N3CCCCCCC3)nc3ccc(Cl)cn23)[nH]1` the Potency was inconclusive: 39.8 µM [inhibitor, partial curve].
For `Cc1cc(C)n2nc(SCC(=O)Nc3cccc(C(F)(F)F)c3)nc2n1`, the “activity change, negative = inhibition” value was inactive: -7.68%.
For `COc1ccc(Cl)cc1NC(=O)c1c(NCc2sccc2C)sc2c1CCCC2`, the Potency was inconclusive: 31.6 µM [inhibitor, single point].
For `O=C(NCc1ccccc1Cl)c1cnc2sc(N3CCCCC3)nn2c1=O`, the “activity change, negative = inhibition” value was inactive: -3.72%.
For `Cc1cc[n+](CC(=O)c2cccc([N+](=O)[O-])c2)c2ccccc12`, the Potency was inconclusive: 39.8 µM [inhibitor, single point].
In the case of `CCOC(=O)c1[nH]c2cc3c(cc2c1NC(=O)CN1CCC2(CC1)OCCO2)OCO3`, the Potency was inconclusive: 39.8 µM [inhibitor, single point].
With `CN(Cc1ccccc1C#N)S(=O)(=O)c1cccs1` the “activity change, negative = inhibition” value was inactive: 0.617%.
`COc1ccccc1N(C)S(=O)(=O)c1ccc(C(=O)OCC(=O)Nc2ccccc2F)cc1` was tested, and the “activity change, negative = inhibition” value was inactive: -11.3%.
In the case of `C[C@H](CCCC/C=C/C(=O)O)O[C@@H]1O[C@@H](C)[C@H](O)C[C@H]1O`, the Potency was inconclusive: 31.6 µM [inhibitor, single point].
With `CCc1nnc(NC(=O)CN2CCN(c3ccccc3F)CC2)s1` the Potency was inconclusive: 39.8 µM [inhibitor, single point].
With `CC[n+]1ccc(C[n+]2ccccc2)c2ccccc21` the Potency was active: 28.2 µM.
`O=C1Cn2c(nc3ccccc32)N1c1cccc(C(F)(F)F)c1` was tested, and the Potency was inconclusive: 39.8 µM [inhibitor, single point].
For `NS(=O)(=O)c1cccc(NC(=O)c2cc(=O)c3ccccc3o2)c1`, the “activity change, negative = inhibition” value was inactive: -18.6%.
`Cc1cccc(NC(=O)NNC(=O)c2cc3ccccc3cc2O)c1C` was tested, and the Potency was inconclusive: 39.8 µM [inhibitor, single point].
For `O=C(c1nn2c(C(F)(F)F)cc(-c3ccc(F)cc3)nc2c1Cl)N1CCOCC1`, the “activity change, negative = inhibition” value was inactive: -6.69%.
`Cc1ccc(NC(=O)CCC(=O)N2CCOc3ccccc32)c(Cl)c1` was tested, and the Potency was inconclusive: 39.8 µM [inhibitor, single point].
For `COc1cc(/C=N/NC(=O)c2ccccn2)ccc1OC(=O)c1ccc(Br)cc1`, the Potency was inconclusive: 7.08 µM [inhibitor, single point].
In the case of `CCCCCCCCCCS(=O)(=O)N/N=C/c1ccc([N+](=O)[O-])cc1`, the Potency was inconclusive: 31.6 µM [inhibitor, single point].
With `CCOC(=O)c1c(NC(=O)Cc2ccccc2)sc2c1CCN(C)C2` the Potency was inconclusive: 0.141 µM [inhibitor, full curve, poor fit].
`COC(=O)C1=CN(C2CC2)C=C(C(=O)OC)C1c1ccccc1OC` was tested, and the Potency was inconclusive: 28.2 µM [inhibitor, single point].
`COc1ccc2oc(=O)c(C(=O)Nc3ccccc3C)cc2c1` was tested, and the Potency was inconclusive: 39.8 µM [inhibitor, single point].
With `O=C(Nc1ccc(Cl)c(Cl)c1)Nc1cc(C(=O)NC2CC2)ccc1Cl` the “activity change, negative = inhibition” value was inactive: 25.8%.
For `CSc1nc(N(C)CCO)c2sc3nc(-c4ccco4)c4c(c3c2n1)CCC4`, the Potency was inconclusive: 5.01 µM [inhibitor, full curve].
`CCOC(=O)c1c(C)oc2nc(C)nc(NCc3cccc(OC)c3)c12` was tested, and the “activity change, negative = inhibition” value was inactive: 3.6%.
In the case of `COc1ccccc1CNC(=O)C1Cc2cc(S(=O)(=O)N3CCCCC3)ccc2N1C(C)=O` (stereo unspecified), the Potency was inconclusive: 31.6 µM [inhibitor, single point].
For `CCOC(=O)N1CCN(C(=O)COc2cccc3c2CCN(Cc2ccccc2C)C3=O)CC1`, the “activity change, negative = inhibition” value was inactive: -2.17%.
For `O=C(COc1ccc2cc(-c3ccccc3)c(=O)oc2c1)NCC1CCC(C(=O)O)CC1` (stereo unspecified), the Potency was inconclusive: 15.8 µM [inhibitor, partial curve, poor fit].
In the case of `COc1ccc(NC(=O)Nc2nnc(Cc3ccc(OC)c(OC)c3)s2)cc1`, the Potency was inconclusive: 20 µM [inhibitor, single point].
In the case of `COc1ccc(Cl)cc1C(=O)NC(=S)Nc1ccccc1N1CCOCC1`, the Potency was inconclusive: 0.891 µM [inhibitor, full curve, poor fit].
With `Cc1ccc(C(=O)Nc2c(N)nc(SCC(=O)NCC3CCCO3)[nH]c2=O)cc1` (stereo unspecified) the Potency was inconclusive: 3.55 µM [inhibitor, full curve, poor fit].
With `CCCCS(=O)(=O)Nc1ccc(N2CCOCC2)c(S(=O)(=O)N2CCOCC2)c1` the Potency was inconclusive: 2.24 µM [inhibitor, full curve, poor fit].
